Among the data in PubChem BioAssay AID2685 (National Center for Advancing Translational Sciences (NCATS), 2010) are cell number change and AC50 values, retold here.

This assay is described as follows: qHTS Assay for Lipid Storage Modulators in Drosophila S3 Cells.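 For cell number change: cells counted by Cell Tracker Red CMTPX staining in the red channel.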 The following applies: BODIPY lipid droplet fluorescence, 18-24 h; for cell number change: measured here: cell count max response, cells fed with added oleic acid. Summed up: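 Drosophila S3 cells loaded with oleic acid (400 uM, as added) and compounds at several concentrations; lipid droplets imaged by 488-nm laser-scanning cytometry, 500–530 nm intensity and object ratio to cell channel. Percent activity normalized to 20 uM Triacsin C.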
(In general: In qHTS, concentration-response curves come from the screen itself.)

The mark [1] stands for this setting: measured here: cell number channel AC50, cells fed with added oleic acid.
The mark [2] stands for this setting: measured here: lipid fluorescence (Fed channel) AC50, cells fed with added oleic acid.

The other results are listed elsewhere or left out. Further columns of the screen follow, without active or inactive calls. Compounds called inactive in the main read-out are mostly missing here. Potencies come from curve fits of mixed quality, noted in brackets.

`COc1cc(/C=C2/C(=O)c3cccc([N+](=O)[O-])c3C2=O)c(Br)cc1O`: the cell number change was -36.2%. Moreover, the AC50 (commonly the concentration giving half of the maximal activity seen) under setting [1] was 2.91 µM [falling, partial curve, poor fit]. In addition, the AC50 under setting [2] was 9.2 µM [falling, partial curve].

In the case of `CSc1ccc(/C=C(\NC(=O)c2ccco2)C(=O)N2CCCCC2)cc1`, the cell number change came to 8.38%. Moreover, the AC50 under setting [2] is 23.1 µM [rising, single point].

On to `C/C(=N\N(Cc1ccccc1)c1ccccc1)c1ccncc1`, for which the half-maximal activity concentration (AC50) under setting [1] was 0.116 µM [rising, partial curve, poor fit].

Take `CCC(C)(C)c1ccc(OCC(=O)Nc2ccncc2)cc1`: the cell number change was -46.3%. Moreover, the half-maximal activity concentration (AC50) under setting [1] is 14.6 µM [falling, single point].

In the case of `Cc1ccc(C2CC(c3ccccc3)=NN2C(=O)CSc2nnc(-c3ccc(Cl)cc3)o2)o1` (stereo not given), the AC50 under setting [1] is 0.366 µM [rising, full curve, poor fit] and the half-maximal activity concentration (AC50) under setting [2] is 1.03 µM [rising, full curve].

Take `Cn1c(=O)[nH]c(=O)c2c1nc(Br)n2CCOc1ccccc1`: the cell number change was -10.3%.

On to `COc1ccc(-c2cc(C3CCNCC3)[nH]n2)cc1`, for which the cell number change came out at 0.519%. Besides, the AC50 under setting [2] is 4.11 µM [rising, single point].

For the compound `COc1cc(CN(C(=S)NCC(=O)N2CCCC2)C2CCCC2)cc(OC)c1OC`, the cell number change was 15.4%. For the same compound, the AC50 under setting [1] is 0.164 µM [falling, full curve, poor fit].

In the case of `CC1CCCC(NC(=S)Nc2ccc(SC(F)F)cc2)C1C` (stereo not given), the cell number change was -43.7%. For the same compound, the AC50 under setting [1] is 29.1 µM [falling, single point]. For the same compound, under setting [2], the AC50 was 3.66 µM [rising, partial curve].

In the case of `O=C(NCc1ccccc1Cl)c1ccc(NC2=NC3CS(=O)(=O)CC3S2)cc1` (stereo not given), the cell number change came to 2.88%. Besides, the AC50 under setting [2] is 0.00517 µM [rising, full curve, poor fit].

For `CCN(CC(=O)NCc1ccncc1)S(=O)(=O)c1ccc(OC)cc1`, the cell number change was 8.82%. Under setting [2], the AC50 is 29.1 µM [rising, single point].

For `CCOC(=O)c1cccc(N2C(=O)Nc3ccccc3N2O)c1`, the cell number change was 14.8%. Also, the AC50 under setting [2] is 0.092 µM [falling, single point].

Regarding `CCOc1cc2c(cc1OC)C(c1cccc([N+](=O)[O-])c1)NCC2` (stereo not given), the cell number change turned out to be 11.5%.

On to `CCOC(=O)c1c(C)c(C(=O)NCc2ccc3c(c2)OCO3)c(C)n1C`, for which, under setting [2], the AC50 was 32.6 µM [rising, single point].

With `COc1cccc2c1NC(C(=O)O)C1CC=CC21` (stereo not given), the cell number change is -40.4%. Further, under setting [1], the AC50 is 5.8 µM [falling, partial curve, poor fit]. Also, the AC50 under setting [2] is 1.3 µM [falling, full curve].

Regarding `Cc1cc(-c2ccccc2)c2ccc(NC(=O)C(C)(C)C)nc2n1`, the cell number change is -6.93%. In addition, the AC50 under setting [2] is 29.1 µM [falling, single point].

On to `CN1CCN(C(=O)Nc2ccc([N+](=O)[O-])cc2)CC1`, for which the cell number change was -21.7%. Moreover, the concentration at half-maximal activity (AC50) under setting [2] is 0.13 µM [falling, full curve].

`CC1CC(C)CN(C(=O)C2CCN(S(=O)(=O)c3cccs3)CC2)C1` (stereo not given): the cell number change was 15.2%. In addition, under setting [2], the half-maximal activity concentration (AC50) is 29.1 µM [falling, single point].

Consider `COc1ccc(S(=O)(=O)NCCc2c[nH]c3ccc(Cl)cc23)cc1`, for which the AC50 under setting [2] is 29.1 µM [falling, single point].

Take `O=C(NCCCN1CCCC1=O)c1ccc(NS(=O)(=O)c2cccc([N+](=O)[O-])c2)cc1`: the cell number change was -40.5%. The AC50 under setting [1] was 1.64 µM [falling, full curve, poor fit].

As for `O=C(c1ccc(F)cc1)C1CCN(CCn2c(=S)[nH]c3ccccc3c2=O)CC1`, the cell number change is 2.13%. The AC50 under setting [2] is 0.058 µM [rising, full curve, poor fit].

As for `O=C(OCCN1C(=O)c2ccccc2C1=O)C1CC(O)CN1S(=O)(=O)c1ccc(Cl)cc1` (stereo not given), the cell number change was determined as 19.2%. In addition, under setting [2], the concentration at half-maximal activity (AC50) was 0.00517 µM [rising, full curve, poor fit].

As for `Cc1ccc(-c2csc3ncnc(N4CCN(S(=O)(=O)c5cccs5)CC4)c23)cc1`, the cell number change was 31.5%. Also, under setting [1], the AC50 was 14.6 µM [rising, partial curve, poor fit].

For `CCNC(=O)COC(=O)/C=C/c1cccs1`, the cell number change was -1.78%. The half-maximal activity concentration (AC50) under setting [1] is 0.366 µM [falling, full curve, poor fit].

Turning to `COc1ccc(C2CC(c3cccs3)=NN2c2ccccc2)cc1` (stereo not given), the cell number change is -30.2%. For the same compound, the AC50 under setting [1] was 20.6 µM [falling, single point]. Further, the AC50 under setting [2] was 29.1 µM [falling, single point].

Consider `COc1ccc(N2CCN(C(=O)CCS(=O)(=O)c3ccc(C)cc3)CC2)cc1`, for which, under setting [2], the AC50 was 11.6 µM [rising, partial curve].

Regarding `COc1cccc(NC(=O)COC(=O)c2cc(=O)c3ccccc3o2)c1`, the cell number change was -3.02%.

As to `O=C(N/N=C/c1cc([N+](=O)[O-])ccc1O)c1cccc2cc[nH]c12`, the cell number change was -20.8%. The AC50 under setting [2] was 23.1 µM [falling, partial curve, poor fit].

In the case of `O=C(Nc1cccnc1)c1cc2nc(C3CC3)cc(C(F)(F)F)n2n1`, the cell number change was found to be 8.8%. For the same compound, the AC50 under setting [2] was 13 µM [rising, partial curve, poor fit].

On to `CC12CN(NC(=O)c3ccc(Cl)cc3)C3(C#N)CC1CCC23C` (stereo not given), for which the cell number change was -51.4%. Also, the half-maximal activity concentration (AC50) under setting [1] was 29.1 µM [falling, single point]. Also, under setting [2], the half-maximal activity concentration (AC50) was 7.31 µM [rising, partial curve].

Regarding `O=C(N/N=C/c1cc2c(cc1Cl)OCO2)c1ccncc1`, the cell number change stood at 18.9%. For the same compound, the half-maximal activity concentration (AC50) under setting [2] was 29.1 µM [rising, single point].

As to `Cc1cc(=O)[nH]c(SCC(=O)Nc2ccc3c(c2)CCC3)c1C#N`, the cell number change was found to be 2.5%. Besides, under setting [1], the AC50 was 0.103 µM [rising, full curve, poor fit].

For `O=C(COc1ccc(Cl)cc1Cl)NC(=S)Nc1ccc(CN2CCOCC2)cc1`, the cell number change was -30.6%.

`CC(C)c1ccc(NC(=O)CSc2nc3ncccc3[nH]2)cc1`: the cell number change is -21.2%. In addition, under setting [2], the AC50 was 29.1 µM [falling, partial curve, poor fit].

For the compound `CCN(CC)CCOC(c1ccccc1)c1ccc(C)cc1` (stereo not given), the cell number change was -6.59%. Also, the AC50 under setting [2] is 0.461 µM [falling, single point].

Consider `CO/N=C(\c1nonc1N)N1CCN(c2ccc([N+](=O)[O-])cc2Cl)CC1`, for which the cell number change was -12.3%.

Consider `CC(=O)c1ccc(NC(=O)CSc2nc3[nH]ncc3c(=O)[nH]2)cc1`, for which the cell number change was -2.69%.

As to `N#CC1(c2ccccc2)CCC(=NO)CC1` (stereo not given), the cell number change turned out to be 2.64%.

Consider `N#Cc1ccc(OCC(=O)NC2=NCCS2)cc1`, for which the cell number change was 8.82%.

In the case of `O=C(COc1ccccc1)Nc1nnc(S(=O)(=O)N2CCCCC2)s1`, the cell number change was 5.01%. Further, the AC50 under setting [2] is 29.1 µM [falling, single point].

On to `C(=N/n1c2ccccc2c2ccccc21)/c1ccco1`, for which the cell number change was -22.3%. Further, under setting [2], the AC50 was 16.4 µM [falling, partial curve, poor fit].

As to `CN1CCN(CCCCOc2ccc(Br)cc2)CC1`, the cell number change came to 51.2%. In addition, under setting [1], the AC50 was 29.1 µM [rising, single point].

For the compound `O=C(/C=C/c1ccccc1)NC1CC2CCCC(C1)N2Cc1ccccc1` (stereo not given), the cell number change came to 1.27%. Besides, the AC50 under setting [2] was 0.0058 µM [rising, full curve, poor fit].

Turning to `O=C(NCc1cccnc1)Nc1cccc(NC(=O)NCc2cccnc2)c1F`, the cell number change came out at 34%. In addition, the AC50 under setting [1] is 32.6 µM [rising, single point]. Moreover, under setting [2], the concentration at half-maximal activity (AC50) is 29.1 µM [rising, single point].

Consider `COc1cc(NS(=O)(=O)c2ccc(NC(=O)COc3cccc(C)c3)cc2)nc(OC)n1`, for which the cell number change came out at 10.3%. Besides, the AC50 under setting [1] was 0.146 µM [falling, full curve, poor fit].

`O=C(COC(=O)CNC(=O)c1ccccc1F)Nc1ncc(Cl)cc1Cl`: the cell number change is 4.81%. In addition, the concentration at half-maximal activity (AC50) under setting [2] was 0.731 µM [rising, single point].

Consider `COc1cc(C(=O)NCc2nnc(SCC(=O)Nc3cccc(C)c3)o2)cc(OC)c1OC`, for which the cell number change was determined as 19.6%.

`COC(=O)NNS(=O)(=O)c1ccc(C)cc1`: the cell number change was 30.2%. The AC50 under setting [1] is 4.11 µM [rising, full curve]. Further, under setting [2], the AC50 was 0.259 µM [rising, full curve, poor fit].

As for `O=C(Nc1ccccc1N1CCOCC1)c1cc(Br)c(Br)s1`, the cell number change came to 1.83%.

For `O=C(N/N=C/c1ccncc1)c1cc(C2CC2)nc2ccccc12`, the cell number change was found to be 22.7%.

For `Cn1ncc2c(Nc3ccc(Br)cc3)nc(Nc3ccc(Br)cc3)nc21`, the cell number change is -55.7%. The concentration at half-maximal activity (AC50) under setting [1] is 23.1 µM [falling, single point]. For the same compound, the AC50 under setting [2] is 18.4 µM [falling, single point].

In the case of `O=C(N/C(=C\c1cccnc1)C(=O)N1CCCCC1)c1cccc(Br)c1`, the AC50 under setting [2] was 0.231 µM [falling, partial curve, poor fit].

With `O=C(CN1CCSCC1)N/N=C/c1ccc(F)cc1`, the cell number change is -72.5%. Besides, the AC50 under setting [1] is 29.1 µM [falling, single point].

With `CC[N+](C)(CC)CCC[n+]1c(-c2ccccc2)c2cc(N)ccc2c2ccc(N)cc21`, the cell number change is 13.1%.

Regarding `O=C(NC1CCCCC1)c1ccc(-c2ccc(Cl)cc2)o1`, under setting [1], the AC50 is 2.31 µM [rising, partial curve].

For `CN1CCN(C(=S)Nc2cccc(S(=O)(=O)N(C)C)c2)CC1`, the cell number change is 21.7%. In addition, the AC50 under setting [2] is 0.0058 µM [rising, full curve, poor fit].

With `COc1cc(CNCc2ccccn2)ccc1OCc1ccccc1Cl`, the cell number change turned out to be 33.3%. Moreover, under setting [1], the AC50 was 29.1 µM [rising, single point].

For `O=C(NC1=NCCS1)c1ccc(N2CCCC2=O)cc1`, the cell number change was -44.9%. Moreover, under setting [1], the AC50 was 0.82 µM [falling, full curve].

In the case of `CCC(=O)Nc1ccc(C(=O)CSc2nc3ccccc3[nH]2)cc1`, the cell number change is -26.2%. Moreover, the AC50 under setting [1] was 0.206 µM [falling, full curve].

On to `CCOC(=O)C(=O)Nc1cc(Cl)ccc1C`, for which the cell number change was -50%. Also, the AC50 under setting [1] was 29.1 µM [falling, single point].

Regarding `CC(NC(=O)CNC(=O)c1ccco1)c1ccc(S(N)(=O)=O)cc1` (stereo not given), the cell number change was -21.9%.

Regarding `CCOC(=O)c1c(S(=O)(=O)NC2CCN(C(=O)OCC)CC2)c(C)n(C)c1C`, the cell number change was 10.6%. Besides, under setting [2], the AC50 is 10.3 µM [rising, partial curve, poor fit].

For the compound `Cc1cc(C(F)(F)F)nn1C(=O)c1cccnc1Cl`, the cell number change was -7.05%. Besides, under setting [2], the half-maximal activity concentration (AC50) is 16.4 µM [falling, partial curve].
